From the supplement of paper PMC11006884
This is a selection; strong and weak results do not stand in their true shares.

The chains behind the UniProt entries cited, without tags or fusion partners. Where a name states a change or a piece, a line headed by the entry shows the natural chain unless it says otherwise.
UniProt P36551: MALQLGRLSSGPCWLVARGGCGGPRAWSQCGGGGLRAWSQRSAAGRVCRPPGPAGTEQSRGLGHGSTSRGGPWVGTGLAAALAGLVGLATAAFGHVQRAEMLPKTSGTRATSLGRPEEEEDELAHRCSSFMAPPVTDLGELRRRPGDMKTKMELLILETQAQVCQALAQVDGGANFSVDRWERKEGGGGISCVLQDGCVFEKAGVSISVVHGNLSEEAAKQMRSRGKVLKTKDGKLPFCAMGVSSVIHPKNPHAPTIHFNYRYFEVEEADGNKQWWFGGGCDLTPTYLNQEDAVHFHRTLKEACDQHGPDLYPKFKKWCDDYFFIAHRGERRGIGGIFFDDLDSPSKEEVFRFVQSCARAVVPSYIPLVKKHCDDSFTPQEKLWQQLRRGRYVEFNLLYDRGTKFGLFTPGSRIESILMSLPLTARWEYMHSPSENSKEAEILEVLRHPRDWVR
UniProt P40222: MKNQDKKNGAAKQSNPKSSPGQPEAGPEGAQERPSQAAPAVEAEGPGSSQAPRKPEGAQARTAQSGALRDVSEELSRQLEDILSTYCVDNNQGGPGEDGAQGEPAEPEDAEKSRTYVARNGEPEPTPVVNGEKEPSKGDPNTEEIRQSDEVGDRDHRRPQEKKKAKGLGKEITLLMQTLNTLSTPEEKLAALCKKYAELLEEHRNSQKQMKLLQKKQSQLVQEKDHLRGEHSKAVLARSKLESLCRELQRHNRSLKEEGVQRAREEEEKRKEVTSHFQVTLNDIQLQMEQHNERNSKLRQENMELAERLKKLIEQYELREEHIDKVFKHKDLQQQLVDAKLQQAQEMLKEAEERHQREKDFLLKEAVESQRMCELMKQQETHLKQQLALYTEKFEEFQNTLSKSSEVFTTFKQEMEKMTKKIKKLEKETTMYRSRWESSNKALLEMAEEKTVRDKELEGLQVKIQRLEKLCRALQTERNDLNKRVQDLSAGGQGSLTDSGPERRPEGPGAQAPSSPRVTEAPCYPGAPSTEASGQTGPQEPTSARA
UniProt P33992: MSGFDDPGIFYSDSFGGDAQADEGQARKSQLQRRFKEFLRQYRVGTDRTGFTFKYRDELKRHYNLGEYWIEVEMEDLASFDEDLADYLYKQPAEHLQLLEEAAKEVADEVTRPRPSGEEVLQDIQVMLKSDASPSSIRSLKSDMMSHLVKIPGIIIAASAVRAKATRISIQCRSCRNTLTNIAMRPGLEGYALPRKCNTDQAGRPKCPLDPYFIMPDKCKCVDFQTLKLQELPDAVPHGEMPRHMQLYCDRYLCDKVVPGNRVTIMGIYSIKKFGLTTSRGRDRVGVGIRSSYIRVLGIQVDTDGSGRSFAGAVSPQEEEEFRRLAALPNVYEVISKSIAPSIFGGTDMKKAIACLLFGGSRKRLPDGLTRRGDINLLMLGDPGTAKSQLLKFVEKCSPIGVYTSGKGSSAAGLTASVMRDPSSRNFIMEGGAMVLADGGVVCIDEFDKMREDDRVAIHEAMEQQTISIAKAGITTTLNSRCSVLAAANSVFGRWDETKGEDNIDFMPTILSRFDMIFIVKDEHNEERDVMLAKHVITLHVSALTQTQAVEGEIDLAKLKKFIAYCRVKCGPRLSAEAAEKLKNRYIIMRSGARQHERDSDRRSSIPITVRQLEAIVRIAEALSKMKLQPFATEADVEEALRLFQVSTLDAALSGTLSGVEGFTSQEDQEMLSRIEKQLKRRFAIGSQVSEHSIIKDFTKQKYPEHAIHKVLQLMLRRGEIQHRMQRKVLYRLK
UniProt P35250, whole entry, looked up: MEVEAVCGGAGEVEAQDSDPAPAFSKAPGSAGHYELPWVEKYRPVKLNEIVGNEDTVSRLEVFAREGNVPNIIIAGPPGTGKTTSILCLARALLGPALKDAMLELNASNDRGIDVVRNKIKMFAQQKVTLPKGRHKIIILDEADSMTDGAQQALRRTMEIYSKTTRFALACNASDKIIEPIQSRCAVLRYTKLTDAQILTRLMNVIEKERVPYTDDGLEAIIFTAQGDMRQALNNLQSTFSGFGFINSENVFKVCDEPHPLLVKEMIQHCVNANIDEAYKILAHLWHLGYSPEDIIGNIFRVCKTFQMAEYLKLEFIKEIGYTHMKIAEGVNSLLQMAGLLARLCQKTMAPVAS
UniProt P40926: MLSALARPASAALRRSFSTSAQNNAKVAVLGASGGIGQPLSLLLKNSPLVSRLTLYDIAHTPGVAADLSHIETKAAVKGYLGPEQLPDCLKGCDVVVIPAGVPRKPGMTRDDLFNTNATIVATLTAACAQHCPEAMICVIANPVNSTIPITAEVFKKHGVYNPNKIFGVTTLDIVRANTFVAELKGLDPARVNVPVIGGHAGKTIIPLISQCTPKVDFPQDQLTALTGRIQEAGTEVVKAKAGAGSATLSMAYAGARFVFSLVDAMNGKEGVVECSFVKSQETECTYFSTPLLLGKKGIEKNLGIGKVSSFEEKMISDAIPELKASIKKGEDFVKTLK
UniProt P30825: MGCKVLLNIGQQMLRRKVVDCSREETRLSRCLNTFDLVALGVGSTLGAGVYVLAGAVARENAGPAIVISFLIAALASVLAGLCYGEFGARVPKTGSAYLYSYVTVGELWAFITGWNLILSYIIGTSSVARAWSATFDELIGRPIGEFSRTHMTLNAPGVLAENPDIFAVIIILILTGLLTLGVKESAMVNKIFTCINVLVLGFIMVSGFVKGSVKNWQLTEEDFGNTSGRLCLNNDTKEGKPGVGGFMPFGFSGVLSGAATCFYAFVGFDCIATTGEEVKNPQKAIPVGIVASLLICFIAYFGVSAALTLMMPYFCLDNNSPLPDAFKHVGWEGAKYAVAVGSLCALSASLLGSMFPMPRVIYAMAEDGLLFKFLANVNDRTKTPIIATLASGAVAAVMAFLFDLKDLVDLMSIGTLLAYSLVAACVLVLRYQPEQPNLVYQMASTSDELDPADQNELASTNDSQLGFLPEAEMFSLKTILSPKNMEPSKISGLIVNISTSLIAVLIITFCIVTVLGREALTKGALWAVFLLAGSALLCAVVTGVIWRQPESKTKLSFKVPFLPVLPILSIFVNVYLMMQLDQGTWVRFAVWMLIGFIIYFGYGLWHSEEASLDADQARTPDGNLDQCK
UniProt P42695: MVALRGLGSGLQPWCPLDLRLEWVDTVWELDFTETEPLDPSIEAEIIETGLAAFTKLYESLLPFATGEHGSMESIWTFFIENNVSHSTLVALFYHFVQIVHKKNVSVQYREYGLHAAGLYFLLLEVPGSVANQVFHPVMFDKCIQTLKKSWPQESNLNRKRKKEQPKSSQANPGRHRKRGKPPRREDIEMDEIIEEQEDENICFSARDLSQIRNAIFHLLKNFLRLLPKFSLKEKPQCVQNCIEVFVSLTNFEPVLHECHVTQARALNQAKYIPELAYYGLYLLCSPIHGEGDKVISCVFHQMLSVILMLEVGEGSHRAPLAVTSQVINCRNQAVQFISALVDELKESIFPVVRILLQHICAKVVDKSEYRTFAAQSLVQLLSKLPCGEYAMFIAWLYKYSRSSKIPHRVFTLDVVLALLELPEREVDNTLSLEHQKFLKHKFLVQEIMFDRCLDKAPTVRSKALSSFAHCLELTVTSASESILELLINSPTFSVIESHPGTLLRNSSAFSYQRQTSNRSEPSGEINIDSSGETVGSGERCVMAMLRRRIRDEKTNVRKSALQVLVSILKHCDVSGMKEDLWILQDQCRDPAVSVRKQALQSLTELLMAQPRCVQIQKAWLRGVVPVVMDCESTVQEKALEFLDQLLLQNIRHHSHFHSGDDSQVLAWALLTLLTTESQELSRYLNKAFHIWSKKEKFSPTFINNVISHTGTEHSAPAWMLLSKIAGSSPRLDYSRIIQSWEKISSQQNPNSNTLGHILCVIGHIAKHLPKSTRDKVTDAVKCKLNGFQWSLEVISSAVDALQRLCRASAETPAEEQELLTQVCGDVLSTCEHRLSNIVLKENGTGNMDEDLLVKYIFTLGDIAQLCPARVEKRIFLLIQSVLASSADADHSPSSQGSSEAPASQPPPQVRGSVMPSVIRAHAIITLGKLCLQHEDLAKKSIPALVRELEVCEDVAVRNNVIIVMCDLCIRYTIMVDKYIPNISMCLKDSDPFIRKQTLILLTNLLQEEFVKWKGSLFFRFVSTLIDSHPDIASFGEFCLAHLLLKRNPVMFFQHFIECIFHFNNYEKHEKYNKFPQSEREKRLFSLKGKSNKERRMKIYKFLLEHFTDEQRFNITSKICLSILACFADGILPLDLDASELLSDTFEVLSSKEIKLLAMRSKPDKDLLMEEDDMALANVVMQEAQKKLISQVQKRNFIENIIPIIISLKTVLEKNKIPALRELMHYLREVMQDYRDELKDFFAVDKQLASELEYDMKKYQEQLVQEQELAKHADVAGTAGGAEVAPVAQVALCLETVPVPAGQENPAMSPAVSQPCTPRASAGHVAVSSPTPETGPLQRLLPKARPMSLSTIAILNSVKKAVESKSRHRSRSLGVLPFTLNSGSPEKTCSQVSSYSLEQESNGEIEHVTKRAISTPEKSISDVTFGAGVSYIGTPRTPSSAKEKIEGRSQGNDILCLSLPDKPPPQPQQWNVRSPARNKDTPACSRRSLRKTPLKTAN
UniProt P31949: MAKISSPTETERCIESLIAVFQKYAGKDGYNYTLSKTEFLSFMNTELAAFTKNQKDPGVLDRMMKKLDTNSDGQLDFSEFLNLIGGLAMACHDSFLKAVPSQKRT
UniProt P42765: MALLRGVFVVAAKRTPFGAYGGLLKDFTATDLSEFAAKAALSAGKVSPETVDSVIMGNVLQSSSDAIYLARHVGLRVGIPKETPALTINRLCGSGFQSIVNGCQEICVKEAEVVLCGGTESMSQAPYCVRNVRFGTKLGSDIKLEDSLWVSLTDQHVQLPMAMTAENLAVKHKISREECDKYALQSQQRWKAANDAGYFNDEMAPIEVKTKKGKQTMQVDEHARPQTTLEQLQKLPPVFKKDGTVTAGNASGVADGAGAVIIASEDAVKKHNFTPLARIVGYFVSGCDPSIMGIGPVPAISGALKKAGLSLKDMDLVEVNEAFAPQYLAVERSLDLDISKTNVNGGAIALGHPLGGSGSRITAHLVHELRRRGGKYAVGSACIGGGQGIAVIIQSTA
UniProt P39880: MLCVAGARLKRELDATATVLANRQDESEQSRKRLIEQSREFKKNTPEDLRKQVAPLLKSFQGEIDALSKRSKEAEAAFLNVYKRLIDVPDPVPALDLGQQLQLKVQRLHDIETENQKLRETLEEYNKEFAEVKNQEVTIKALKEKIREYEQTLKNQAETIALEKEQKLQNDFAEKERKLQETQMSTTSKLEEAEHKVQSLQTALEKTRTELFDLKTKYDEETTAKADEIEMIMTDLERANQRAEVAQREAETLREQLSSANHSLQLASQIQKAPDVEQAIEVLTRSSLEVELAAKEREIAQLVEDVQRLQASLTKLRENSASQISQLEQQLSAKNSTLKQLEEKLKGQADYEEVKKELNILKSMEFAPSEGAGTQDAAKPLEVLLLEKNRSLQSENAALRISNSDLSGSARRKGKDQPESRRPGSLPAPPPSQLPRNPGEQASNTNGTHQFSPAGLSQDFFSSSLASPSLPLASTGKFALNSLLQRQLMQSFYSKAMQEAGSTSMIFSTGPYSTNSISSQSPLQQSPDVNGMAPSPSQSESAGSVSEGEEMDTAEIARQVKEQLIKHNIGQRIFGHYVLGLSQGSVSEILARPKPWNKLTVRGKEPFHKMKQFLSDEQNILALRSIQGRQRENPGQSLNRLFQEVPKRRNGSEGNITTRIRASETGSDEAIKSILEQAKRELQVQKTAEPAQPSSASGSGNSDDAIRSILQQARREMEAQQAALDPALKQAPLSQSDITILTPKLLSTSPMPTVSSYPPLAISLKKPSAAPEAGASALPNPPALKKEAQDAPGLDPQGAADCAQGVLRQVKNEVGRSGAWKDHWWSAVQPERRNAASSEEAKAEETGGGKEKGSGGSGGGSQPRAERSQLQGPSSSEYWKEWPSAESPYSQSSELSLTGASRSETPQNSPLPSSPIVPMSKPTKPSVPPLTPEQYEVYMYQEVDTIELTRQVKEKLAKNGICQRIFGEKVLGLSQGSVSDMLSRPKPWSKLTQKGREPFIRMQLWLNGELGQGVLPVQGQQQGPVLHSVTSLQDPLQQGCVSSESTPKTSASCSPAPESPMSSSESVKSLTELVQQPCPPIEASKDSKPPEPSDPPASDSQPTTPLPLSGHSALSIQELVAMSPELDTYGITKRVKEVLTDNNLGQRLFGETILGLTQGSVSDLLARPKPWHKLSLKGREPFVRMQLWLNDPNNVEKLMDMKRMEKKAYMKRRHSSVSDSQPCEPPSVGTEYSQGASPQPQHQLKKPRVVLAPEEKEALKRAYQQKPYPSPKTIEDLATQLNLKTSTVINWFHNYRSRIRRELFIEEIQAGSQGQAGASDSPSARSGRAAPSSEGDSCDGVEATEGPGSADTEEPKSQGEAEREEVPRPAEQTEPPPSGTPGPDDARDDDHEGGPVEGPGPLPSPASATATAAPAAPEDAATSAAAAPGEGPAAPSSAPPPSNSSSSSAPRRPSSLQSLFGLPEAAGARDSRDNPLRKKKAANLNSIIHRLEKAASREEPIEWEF

These targets were tested with COC(=O)C#Cc1ccccc1 [methyl 3-phenylpropiolate] (assay: log2 ratio of iodoacetamide-alkyne labeling of the cysteine site, DMSO over compound (competition); higher = stronger covalent engagement of the cysteine by the compound, active = 1 or more). Conditions: 500 µM; treatment time 1 h; system: HEK293T cell lysate.
How it was run: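 Reporter intensities give each cysteine's log2 competition ratio as the mean of control channels over the mean of compound channels. The samples were HEK293T lysate (2 mg/mL) given vehicle or electrophile (500 µM, 1 h, ambient temperature), then iodoacetamide alkyne (1 h), followed by click coupling to sCIP-TMT reagents, pooling, trypsin digestion overnight at 37 °C, streptavidin enrichment, acid elution, Orbitrap Eclipse LC-MS/MS with FAIMS and FragPipe quantification. Duplicate channels and three replicates were run, and cysteines quantified in only one replicate were discarded.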

log2 ratio of iodoacetamide-alkyne labeling, inactive:
LRPPRC C863 (UniProt P42704) -0.00586
CPOX C198 (UniProt P36551) 0.365
TXLNA C87 (UniProt P40222) 0.0789
WEE1 C251 (UniProt P30291) 0.654
KIF5B C421 (UniProt P33176) -0.155
LRPPRC C130 (UniProt P42704) 0.188
MCM5 C397 (UniProt P33992) 0.145
RFC2 C255 (UniProt P35250) 0.0817
SOAT1 C92 (UniProt P35610) 0.403
MDH2 C93 (UniProt P40926) 0.117
SLC7A1 C628 (UniProt P30825) 0.105
RPL3 C253 (UniProt P39023) 0.582
MAT2A C56 (UniProt P31153) 0.109
NCAPD3 C1389 (UniProt P42695) -0.0173
DNAJA1 C302 (UniProt P31689) 0.237
STAT1 C108 (UniProt P42224) 0.195
S100A11 C91 (UniProt P31949) 0.149
ACAA2 C287 (UniProt P42765) 0.344
POLR2B C1137 (UniProt P30876) 0.175
CUX1 C802 (UniProt P39880) 0.104
FEN1 C163 (UniProt P39748) 0.541

Reprinted at random: 2 records from the list
log2 ratio of iodoacetamide-alkyne labeling, inactive:
STAT1 C108 (UniProt P42224) 0.195
KIF5B C421 (UniProt P33176) -0.155
